No constants are given. Whether binding was seen depends on the method and setting. Some binding calls cover weakened binding; strength is not graded here.
What was measured:
[1] = target: fibroblast growth factor (FGF)-2 (human) (UniProt P09038); test: ELISA, FL-vWF coated, GF 1 µg/mL
[2] = target: platelet-derived growth factor (PDGF)-BB (human) (UniProt P01127); test: ELISA, FL-vWF coated, GF 1 µg/mL
[3] = target: vascular endothelial growth factor (VEGF)-A165 (human) (UniProt P15692); test: ELISA, FL-vWF coated, GF 1 µg/mL
[4] = target: insulin-like growth factor (IGF)-1 (UniProt P05019); test: ELISA, GF coated, laminin 10 nM
[5] = target: fibroblast growth factor (FGF)-2 (human) (UniProt P09038); test: ELISA, laminin coated, GF 1 µg/mL, without or with 10 µM heparin
[6] = target: placental growth factor (PlGF)-2 (human) (UniProt P49763); test: as above
[7] = target: vascular endothelial growth factor (VEGF)-A165 (human) (UniProt P15692); test: as above
[8] = target: fibroblast growth factor (FGF)-2 (human) (UniProt P09038); test: ELISA; plate coated with 10 µg/mL laminin, 1 µg/mL FGF-2 in solution without or with 10 µM heparin, bound GF detected with antibody [panel C]
[9] = target: placental growth factor (PlGF)-2 (human) (UniProt P49763); test: ELISA; plate coated with 10 µg/mL laminin, 1 µg/mL PlGF-2 in solution without or with 10 µM heparin, bound GF detected with antibody [panel B]
[10] = target: vascular endothelial growth factor (VEGF)-A165 (human) (UniProt P15692); test: ELISA; plate coated with 10 µg/mL laminin, 1 µg/mL VEGF-A165 in solution without or with 10 µM heparin, bound GF detected with antibody [panel A]
CXCL-12γ (human) = CXCL-12γ (human) (UniProt P48061); test: ELISA, GF coated, laminin 10 nM
[11] = target: T1, bone morphogenetic protein (BMP)-2 (UniProt P12643); test: ELISA, GF coated, laminin 10 nM
T1 sequence (looked up): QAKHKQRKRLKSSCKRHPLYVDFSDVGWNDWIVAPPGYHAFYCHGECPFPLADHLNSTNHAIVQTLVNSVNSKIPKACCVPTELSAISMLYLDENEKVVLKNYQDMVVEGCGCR

Chains of the proteins cited; added tags and fusions are not shown. Lines headed by an entry give the natural chain unless they say otherwise; changes in a name come on top. A line that says so, or that is headed by a name, gives the form on record, which may keep a tag or linker. Residues count along the entry.
UniProt P09038, residues 143-288: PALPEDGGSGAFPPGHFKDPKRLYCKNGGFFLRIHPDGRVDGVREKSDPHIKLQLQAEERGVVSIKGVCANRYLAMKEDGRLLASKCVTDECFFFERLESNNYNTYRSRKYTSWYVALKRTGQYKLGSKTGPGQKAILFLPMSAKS
UniProt P01127, residues 82-190: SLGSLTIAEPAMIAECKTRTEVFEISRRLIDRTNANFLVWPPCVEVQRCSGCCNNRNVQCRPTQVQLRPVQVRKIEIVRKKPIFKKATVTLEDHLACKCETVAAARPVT
vascular endothelial growth factor (VEGF)-A165 (P15692, form named): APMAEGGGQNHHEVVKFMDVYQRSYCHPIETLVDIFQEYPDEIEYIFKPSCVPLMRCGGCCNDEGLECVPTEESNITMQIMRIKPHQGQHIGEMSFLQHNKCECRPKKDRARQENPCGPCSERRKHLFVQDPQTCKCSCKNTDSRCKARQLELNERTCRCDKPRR
recombinant human VEGF-A145 (P15692, form named): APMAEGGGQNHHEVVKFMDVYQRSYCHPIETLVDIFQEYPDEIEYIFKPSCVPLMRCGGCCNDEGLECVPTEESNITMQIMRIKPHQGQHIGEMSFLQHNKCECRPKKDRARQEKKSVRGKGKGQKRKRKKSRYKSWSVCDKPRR
UniProt P05019, residues 49-118: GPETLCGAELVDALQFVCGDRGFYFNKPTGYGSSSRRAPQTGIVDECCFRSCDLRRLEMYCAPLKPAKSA
placental growth factor (PlGF)-2 (P49763, form named): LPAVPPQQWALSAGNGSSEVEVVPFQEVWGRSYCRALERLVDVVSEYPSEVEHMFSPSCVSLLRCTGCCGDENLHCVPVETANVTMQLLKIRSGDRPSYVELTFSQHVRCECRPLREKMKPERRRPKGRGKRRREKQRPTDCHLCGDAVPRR
CXCL-12γ (P48061, form named): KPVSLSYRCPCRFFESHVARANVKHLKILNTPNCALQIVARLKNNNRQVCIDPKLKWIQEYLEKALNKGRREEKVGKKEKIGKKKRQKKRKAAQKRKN
UniProt O76093, residues 28-207: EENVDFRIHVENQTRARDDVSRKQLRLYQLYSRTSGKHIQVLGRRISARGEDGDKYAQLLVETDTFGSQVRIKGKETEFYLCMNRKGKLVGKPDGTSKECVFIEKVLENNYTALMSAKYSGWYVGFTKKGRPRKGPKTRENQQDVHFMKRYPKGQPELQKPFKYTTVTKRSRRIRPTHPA
UniProt P04275: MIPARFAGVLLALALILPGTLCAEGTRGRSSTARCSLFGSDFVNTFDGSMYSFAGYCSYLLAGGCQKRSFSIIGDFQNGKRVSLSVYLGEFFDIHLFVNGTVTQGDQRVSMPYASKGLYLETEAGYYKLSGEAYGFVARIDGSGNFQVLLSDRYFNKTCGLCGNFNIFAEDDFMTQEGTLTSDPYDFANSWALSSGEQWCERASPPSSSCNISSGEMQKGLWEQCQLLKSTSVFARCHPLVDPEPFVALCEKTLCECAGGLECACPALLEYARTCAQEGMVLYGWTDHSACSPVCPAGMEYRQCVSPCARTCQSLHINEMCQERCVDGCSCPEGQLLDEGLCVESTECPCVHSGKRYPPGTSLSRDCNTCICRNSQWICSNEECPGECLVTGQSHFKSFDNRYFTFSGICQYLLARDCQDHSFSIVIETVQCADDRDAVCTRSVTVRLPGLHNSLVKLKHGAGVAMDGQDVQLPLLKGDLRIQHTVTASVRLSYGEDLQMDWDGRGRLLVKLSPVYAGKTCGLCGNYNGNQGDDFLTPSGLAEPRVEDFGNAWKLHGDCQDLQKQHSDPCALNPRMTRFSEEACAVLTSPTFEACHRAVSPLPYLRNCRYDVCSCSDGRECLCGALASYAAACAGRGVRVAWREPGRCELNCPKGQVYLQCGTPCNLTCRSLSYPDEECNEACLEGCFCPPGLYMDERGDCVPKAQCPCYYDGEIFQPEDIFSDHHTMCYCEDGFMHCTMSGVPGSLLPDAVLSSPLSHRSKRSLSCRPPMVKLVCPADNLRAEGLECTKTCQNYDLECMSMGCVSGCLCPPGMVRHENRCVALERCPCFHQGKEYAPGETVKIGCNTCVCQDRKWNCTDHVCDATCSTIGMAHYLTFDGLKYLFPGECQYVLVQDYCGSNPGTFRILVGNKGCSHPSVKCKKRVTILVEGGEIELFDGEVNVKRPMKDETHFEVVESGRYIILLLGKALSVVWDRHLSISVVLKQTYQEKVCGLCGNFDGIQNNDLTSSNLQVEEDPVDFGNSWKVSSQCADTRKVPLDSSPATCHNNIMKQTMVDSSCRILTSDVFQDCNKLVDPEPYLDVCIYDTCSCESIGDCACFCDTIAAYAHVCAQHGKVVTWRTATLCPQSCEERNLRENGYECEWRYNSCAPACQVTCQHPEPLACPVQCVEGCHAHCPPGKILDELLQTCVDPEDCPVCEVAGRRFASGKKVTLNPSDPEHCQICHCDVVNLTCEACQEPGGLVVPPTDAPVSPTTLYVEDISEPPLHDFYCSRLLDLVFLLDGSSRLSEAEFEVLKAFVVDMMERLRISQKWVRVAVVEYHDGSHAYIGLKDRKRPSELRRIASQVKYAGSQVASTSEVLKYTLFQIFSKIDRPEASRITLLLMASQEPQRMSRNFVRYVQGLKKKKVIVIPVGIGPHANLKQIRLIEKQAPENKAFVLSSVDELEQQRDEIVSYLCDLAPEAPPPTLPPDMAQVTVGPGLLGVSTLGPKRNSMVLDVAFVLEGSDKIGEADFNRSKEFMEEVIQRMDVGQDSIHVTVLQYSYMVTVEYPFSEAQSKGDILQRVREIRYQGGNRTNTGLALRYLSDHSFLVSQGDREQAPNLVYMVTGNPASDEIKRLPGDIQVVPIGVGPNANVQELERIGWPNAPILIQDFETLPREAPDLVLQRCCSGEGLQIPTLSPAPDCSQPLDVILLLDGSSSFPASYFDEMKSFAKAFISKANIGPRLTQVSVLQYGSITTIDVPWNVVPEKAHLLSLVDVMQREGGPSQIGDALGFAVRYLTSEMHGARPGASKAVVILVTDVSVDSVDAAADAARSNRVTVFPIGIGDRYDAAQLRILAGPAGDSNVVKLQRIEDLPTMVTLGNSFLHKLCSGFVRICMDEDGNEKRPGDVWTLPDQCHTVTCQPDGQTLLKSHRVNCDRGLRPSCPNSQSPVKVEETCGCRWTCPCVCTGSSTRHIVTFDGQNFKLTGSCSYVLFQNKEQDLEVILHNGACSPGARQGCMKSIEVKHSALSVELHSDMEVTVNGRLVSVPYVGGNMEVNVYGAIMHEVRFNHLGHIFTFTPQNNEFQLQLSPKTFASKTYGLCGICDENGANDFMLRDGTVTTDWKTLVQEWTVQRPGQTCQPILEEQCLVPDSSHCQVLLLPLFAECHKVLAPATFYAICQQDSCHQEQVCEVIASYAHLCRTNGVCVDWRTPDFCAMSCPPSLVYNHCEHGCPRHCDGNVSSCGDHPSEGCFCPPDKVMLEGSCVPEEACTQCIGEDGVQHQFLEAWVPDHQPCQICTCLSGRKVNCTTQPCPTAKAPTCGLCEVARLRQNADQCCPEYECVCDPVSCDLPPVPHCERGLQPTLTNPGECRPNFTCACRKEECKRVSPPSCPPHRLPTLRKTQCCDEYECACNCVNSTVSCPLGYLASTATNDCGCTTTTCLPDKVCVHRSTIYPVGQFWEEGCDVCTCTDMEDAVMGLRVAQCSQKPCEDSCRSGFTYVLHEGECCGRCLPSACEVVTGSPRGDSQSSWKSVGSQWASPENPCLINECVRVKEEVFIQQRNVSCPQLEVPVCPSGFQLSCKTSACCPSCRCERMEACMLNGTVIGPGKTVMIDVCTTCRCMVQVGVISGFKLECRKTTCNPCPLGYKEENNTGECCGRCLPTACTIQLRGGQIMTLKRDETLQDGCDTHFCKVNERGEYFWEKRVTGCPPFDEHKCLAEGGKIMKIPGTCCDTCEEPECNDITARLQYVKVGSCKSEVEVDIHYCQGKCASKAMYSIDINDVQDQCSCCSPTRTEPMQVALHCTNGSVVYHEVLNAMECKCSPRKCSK
vWF in serum of a type 2B vWD patient carrying the R1341Q mutation (P04275, form named): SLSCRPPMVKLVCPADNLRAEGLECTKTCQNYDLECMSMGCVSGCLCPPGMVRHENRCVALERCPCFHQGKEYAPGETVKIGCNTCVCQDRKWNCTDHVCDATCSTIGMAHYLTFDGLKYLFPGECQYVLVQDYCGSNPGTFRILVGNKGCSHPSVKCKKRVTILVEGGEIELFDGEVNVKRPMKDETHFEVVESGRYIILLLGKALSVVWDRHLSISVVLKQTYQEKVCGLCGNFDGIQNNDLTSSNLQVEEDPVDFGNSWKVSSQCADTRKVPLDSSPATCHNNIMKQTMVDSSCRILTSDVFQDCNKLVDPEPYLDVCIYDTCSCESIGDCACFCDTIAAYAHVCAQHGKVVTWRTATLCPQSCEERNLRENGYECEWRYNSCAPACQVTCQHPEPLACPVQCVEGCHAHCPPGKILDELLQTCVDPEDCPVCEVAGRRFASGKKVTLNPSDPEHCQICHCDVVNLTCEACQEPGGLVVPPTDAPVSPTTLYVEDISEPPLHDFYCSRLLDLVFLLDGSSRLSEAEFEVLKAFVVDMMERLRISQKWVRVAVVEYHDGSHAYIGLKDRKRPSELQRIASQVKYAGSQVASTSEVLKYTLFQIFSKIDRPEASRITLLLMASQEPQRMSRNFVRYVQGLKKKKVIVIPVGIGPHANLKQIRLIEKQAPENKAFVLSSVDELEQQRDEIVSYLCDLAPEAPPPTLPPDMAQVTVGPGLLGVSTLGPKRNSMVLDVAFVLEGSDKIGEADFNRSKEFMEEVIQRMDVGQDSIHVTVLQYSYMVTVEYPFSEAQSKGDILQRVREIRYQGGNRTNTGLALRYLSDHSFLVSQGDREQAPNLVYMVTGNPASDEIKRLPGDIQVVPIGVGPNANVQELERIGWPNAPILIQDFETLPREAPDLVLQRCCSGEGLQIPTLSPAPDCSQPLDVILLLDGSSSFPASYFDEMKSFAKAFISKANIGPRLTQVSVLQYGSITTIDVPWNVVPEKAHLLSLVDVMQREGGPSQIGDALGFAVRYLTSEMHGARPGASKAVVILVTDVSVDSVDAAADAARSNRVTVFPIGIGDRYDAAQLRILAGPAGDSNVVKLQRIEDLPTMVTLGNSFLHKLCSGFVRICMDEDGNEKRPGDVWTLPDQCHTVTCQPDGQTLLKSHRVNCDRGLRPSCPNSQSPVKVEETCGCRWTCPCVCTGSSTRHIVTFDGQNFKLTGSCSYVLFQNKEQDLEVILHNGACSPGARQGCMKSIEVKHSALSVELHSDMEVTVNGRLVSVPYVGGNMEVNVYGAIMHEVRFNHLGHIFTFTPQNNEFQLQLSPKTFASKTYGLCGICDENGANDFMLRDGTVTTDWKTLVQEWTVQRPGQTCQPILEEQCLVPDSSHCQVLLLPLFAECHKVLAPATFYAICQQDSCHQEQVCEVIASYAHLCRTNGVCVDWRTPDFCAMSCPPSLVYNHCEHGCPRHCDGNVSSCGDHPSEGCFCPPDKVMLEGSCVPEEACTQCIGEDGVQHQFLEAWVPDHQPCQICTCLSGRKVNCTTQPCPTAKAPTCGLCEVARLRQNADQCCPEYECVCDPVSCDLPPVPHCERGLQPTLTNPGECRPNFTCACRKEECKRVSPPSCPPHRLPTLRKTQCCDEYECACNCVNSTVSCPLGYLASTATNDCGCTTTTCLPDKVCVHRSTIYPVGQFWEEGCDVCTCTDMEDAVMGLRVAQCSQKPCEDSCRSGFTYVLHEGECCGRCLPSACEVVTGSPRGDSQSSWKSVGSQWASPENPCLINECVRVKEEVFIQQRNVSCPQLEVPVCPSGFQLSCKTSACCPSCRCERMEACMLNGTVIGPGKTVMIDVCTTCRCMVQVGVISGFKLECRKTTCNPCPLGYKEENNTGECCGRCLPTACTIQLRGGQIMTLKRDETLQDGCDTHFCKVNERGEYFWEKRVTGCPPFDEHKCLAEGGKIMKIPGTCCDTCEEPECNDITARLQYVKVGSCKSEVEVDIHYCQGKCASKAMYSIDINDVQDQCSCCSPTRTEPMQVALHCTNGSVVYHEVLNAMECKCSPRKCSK

[12] = target: T2, bone morphogenetic protein (BMP)-3 (UniProt P12645); test: ELISA, GF coated, laminin 10 nM
T2 sequence (looked up): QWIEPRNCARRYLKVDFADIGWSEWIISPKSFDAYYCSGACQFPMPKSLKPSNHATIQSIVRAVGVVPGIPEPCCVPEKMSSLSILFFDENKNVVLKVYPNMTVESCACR

[13] = target: T3, brain-derived neurotrophic factor (BDNF) (UniProt P23560); test: ELISA, GF coated, laminin 10 nM
T3 sequence (looked up): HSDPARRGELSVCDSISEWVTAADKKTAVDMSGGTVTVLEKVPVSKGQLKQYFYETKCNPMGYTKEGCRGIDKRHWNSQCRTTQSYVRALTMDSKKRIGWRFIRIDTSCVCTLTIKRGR

[14] = target: T4, fibroblast growth factor (FGF)-10 (UniProt O15520); test: ELISA, GF coated, laminin 10 nM
T4 sequence (looked up): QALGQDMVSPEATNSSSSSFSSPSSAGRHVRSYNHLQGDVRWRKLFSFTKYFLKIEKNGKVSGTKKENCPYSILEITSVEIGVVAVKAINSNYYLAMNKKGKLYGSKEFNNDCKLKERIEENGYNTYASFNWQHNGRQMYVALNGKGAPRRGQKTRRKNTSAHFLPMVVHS

[15] = target: fibroblast growth factor (FGF)-18 (UniProt O76093); test: ELISA, GF coated, laminin 10 nM
[16] = target: fibroblast growth factor (FGF)-2 (human) (UniProt P09038); test: ELISA, GF coated, laminin 10 nM
[17] = target: T5, fibroblast growth factor (FGF)-7 (UniProt P21781); test: ELISA, GF coated, laminin 10 nM
T5 sequence (looked up): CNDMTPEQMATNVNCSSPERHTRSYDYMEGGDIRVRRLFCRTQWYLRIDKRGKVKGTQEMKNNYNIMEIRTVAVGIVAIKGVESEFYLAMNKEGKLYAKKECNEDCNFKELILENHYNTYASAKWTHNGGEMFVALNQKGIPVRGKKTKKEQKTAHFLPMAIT

neurotrophin (NT)-3 = target: T6, neurotrophin (NT)-3 (UniProt P20783); test: ELISA, GF coated, laminin 10 nM
T6 sequence (looked up): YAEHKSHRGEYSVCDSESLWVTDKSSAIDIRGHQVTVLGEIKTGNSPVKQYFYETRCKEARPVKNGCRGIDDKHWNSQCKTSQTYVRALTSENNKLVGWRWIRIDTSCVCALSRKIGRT

[18] = target: placental growth factor (PlGF)-2 (human) (UniProt P49763); test: ELISA, GF coated, laminin 10 nM
[19] = target: platelet-derived growth factor (PDGF)-BB (human) (UniProt P01127); test: ELISA, GF coated, laminin 10 nM
[20] = target: vascular endothelial growth factor (VEGF)-A165 (human) (UniProt P15692); test: ELISA, GF coated, laminin 10 nM
[21] = target: recombinant human VEGF-A145 (human) (UniProt P15692); test: ELISA, vWF coated 50 nM, VEGF-A 1 µg/mL
[22] = target: vascular endothelial growth factor (VEGF)-A165 (human) (UniProt P15692); test: ELISA, vWF coated 50 nM, VEGF-A 1 µg/mL
[23] = target: recombinant human VEGF-A145 (human) (UniProt P15692); test: ELISA; vWF forms coated at 50 nM, 1 µg/mL VEGF-A145 in solution, detected with anti-VEGF-A antibody [panel C]
[24] = target: VEGF-A in human serum (human) (UniProt P15692); test: sandwich ELISA (anti-vWF capture, anti-VEGF-A detection) and immunoprecipitation with Western blot on human serum
[25] = target: fibroblast growth factor (FGF)-2 (human) (UniProt P09038); test: sandwich ELISA on serum, anti-vWF capture, anti-GF detection (GF of the serum)
[26] = target: platelet-derived growth factor (PDGF)-BB (human) (UniProt P01127); test: as above
[27] = target: vascular endothelial growth factor (VEGF)-A165 (human) (UniProt P15692); test: as above

## full-length recombinant human vWF (WT) (from UniProt P04275 764-2813)
[1]
  binding: binds
[2]
  binding: binds
[3]
  binding: binds

## laminin-111 (from UniProt P25391 18-3075; P07942 22-1786; P11047 34-1609)
[4]
  binding: no binding (tested: A450 0.1)

## laminin-211 (from UniProt P24043 23-3122; P07942 22-1786; P11047 34-1609)
[4]
  binding: no binding (tested: A450 0.1)

## laminin-221 (from UniProt P24043 23-3122; P55268 33-1798; P11047 34-1609)
[5]
  binding: binds
[6]
  binding: binds
[7]
  binding: binds
[8]
  binding: binds
[9]
  binding: binds
[10]
  binding: binds

## laminin-332 (from UniProt Q16787 28-1724; Q13751 18-1172; Q13753 22-1193)
CXCL-12γ (human)
  binding: binds
[11]
  binding: binds
[12]
  binding: binds
[13]
  binding: binds
[14]
  binding: binds
[15]
  binding: binds
[16]
  binding: binds
[17]
  binding: binds
[4]
  binding: no binding (tested: A450 0.1)
Neurotrophin (NT)-3
  binding: binds
[18]
  binding: binds
[19]
  binding: binds
[20]
  binding: binds

## laminin-411 (from UniProt Q16363 25-1823; P07942 22-1786; P11047 34-1609)
[4]
  binding: no binding (tested: A450 0.1)

## laminin-421 (from UniProt Q16363 25-1823; P55268 33-1798; P11047 34-1609)
[4]
  binding: no binding (tested: A450 0.1)

## laminin-511 (from UniProt O15230 36-3695; P07942 22-1786; P11047 34-1609)
[4]
  binding: no binding (tested: A450 0.1)

## laminin-521 (from UniProt O15230 36-3695; P55268 33-1798; P11047 34-1609)
[4]
  binding: no binding (tested: A450 0.1)

## pro-peptide containing recombinant vWF (from UniProt P04275 23-2813)
[21]
  binding: binds
[22]
  binding: binds
[23]
  binding: binds

## vWF in human serum from healthy donors (from UniProt P04275 764-2813)
[24]
  binding: binds

## vWF in serum of a type 2B vWD patient carrying the R1341Q mutation (from UniProt P04275 764-2813)
[25]
  binding: binds
[26]
  binding: binds
[27]
  binding: binds
